Reference: the supplement of paper PMC12889115
This is one part of the list. These are raw signals, not scaled to a control.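 First-pass screen: polymyxin B was added at a level that permeabilizes the Salmonella outer membrane while sparing the inner membrane. DMSO wells, with and without polymyxin B, defined maximum growth. Because plates differed from one another, each plate's data were ranked separately and the compounds with the lowest OD600 were carried forward as hits.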

System: Salmonella enterica serovar Typhimurium SL1344
Assay: bacterial growth OD600 after 18 h with compound and polymyxin B; higher = more bacterial growth (less inhibition)
Details: 50 µM, Mueller-Hinton broth

SMILES | bacterial growth OD600 (polymyxin B 0.75 µg/mL) | bacterial growth OD600 (polymyxin B 1 µg/mL)
COc1cccc(-c2n[nH]c3c2CN(C(=O)c2ccccc2N(C)C)CC3)c1 | 0.164 | –
O=C1O[C@@H]2CN(Cc3cnc(N4CCCC4)s3)C[C@@H]2N1C1CCCC1 | 0.837 | –
COc1ccc(F)c(CN2CCC(CCC(=O)N3CCN(c4ccccc4)CC3)CC2)c1 | – | 0.906
CCCCC1CN(CCNC(=O)c2ccc(OC)c(OC)c2OC)Cc2ccccc2O1 (stereo not given) | 0.64 | –
CCOc1ccc(CN2CCN(Cc3ccc(OC)c(O)c3)CC2CCO)cc1 (stereo not given) | – | 0.832
O=C(CCC1CCN(CC2CC=CCC2)CC1)Nc1ccc2c(c1)OCCO2 (stereo not given) | – | 1.06
OC1CCN([C@@H]2CCN(Cc3cccc4c3oc3ccccc34)C[C@H]2O)CC1 | 0.778 | –
COCCn1c(CN(C)C(C)C)cnc1S(=O)(=O)CC1CCCCC1 | 0.82 | –
Cc1c(CC(=O)NCC2CC2)c2c(n1Cc1ccccc1F)CCCC2=O | – | 0.424
CC(=O)Nc1cc(C(=O)N(C)Cc2nc3c(s2)CCCC3)c2c(c1)nc(C)n2Cc1ccccc1 | 0.781 | –
CN(CC1CCCN(CCc2ccc(F)cc2)C1)C(=O)C1(c2ccccc2)CC1 (stereo not given) | – | 0.021
O=C1OCCN1CCNc1ccc(-c2nc(-c3cccc(Cl)c3)no2)cn1 | 0.002 | –
CCC(CC)NC1CCCc2nc(N3CCC(CO)CC3)ncc21 (stereo not given) | – | 1.35
CCN1CCC(CN(C)C(=O)c2cc(Cn3c(C)nc4ccccc43)[nH]n2)C1 (stereo not given) | – | 0.871
O=C(NCc1cccs1)c1ccc(OC2CCN(Cc3ccccn3)CC2)cc1 | – | 0.836
CCCCn1c(CN(C)Cc2sccc2C)cnc1S(=O)(=O)CC1CCC1 | – | 0.018
CC(NC(=O)C1(N(C)CCc2ccccc2)Cc2ccccc2C1)c1ccncn1 (stereo not given) | 0.006 | –
CCc1csc(CNC(=O)c2ccc(N3C[C@@H](C)O[C@@H](C)C3)nc2)n1 | – | 0.826
CC#CCN1C(=O)NC(CCc2ccccc2)(C2CCN(Cc3ccc4c(c3)CCO4)CC2)C1=O (stereo not given) | 0.76 | –
Cc1nccn1CCC(=O)NCc1cccnc1Oc1ccccc1 | – | 0.922
Cc1nc(N2CCC(NCc3csc(-c4cccs4)n3)CC2)nc2ccc(F)cc12 | 0.754 | –
COc1cccc(CCC(=O)N2CCc3c(cnc(C)c3CNS(=O)(=O)c3cccs3)C2)c1 | 0.785 | –
COc1ccccc1OCc1cc(C(=O)N2C[C@@H](C)O[C@@H](C)C2)n[nH]1 | – | 0.834
CSCCNC(=O)C1CCC(=O)N(Cc2cccc(C(F)(F)F)c2)C1 (stereo not given) | – | 0.956
O=C(NC1CCCC1)c1ccc(N2CCC(NCc3ccc4c(c3)OCO4)CC2)cc1 | 0.717 | –
COCCN(C)C(=O)CC1(c2ccccc2)CC(=O)N(CCCOc2cccnc2)C1=O (stereo not given) | 0.844 | –
CSCCNC(=O)C1CCN(c2nc(C)c3cc(C(C)C)ccc3n2)CC1 | 0.877 | –
COc1ccc(OC)c(-c2nc(CN3CCCCC3c3nccs3)c(C)o2)c1 (stereo not given) | – | 0.502
COCCN(Cc1cn(C)nc1-c1ccc(Oc2ccccc2)cc1)C(C)C | – | 1.01
CCN(CC)CC(=O)N1CCCC(C(=O)Nc2cccc(-c3ccc(F)cc3)c2)C1 (stereo not given) | – | 1

Some values from the entries so far.
Value for CSCCNC(=O)C1CCC(=O)N(Cc2cccc(C(F)(F)F)c2)C1 (stereo not given) under bacterial growth OD600 (polymyxin B 1 µg/mL): 0.956
Value for CSCCNC(=O)C1CCN(c2nc(C)c3cc(C(C)C)ccc3n2)CC1 under bacterial growth OD600 (polymyxin B 0.75 µg/mL): 0.877
